No constants are given. Whether binding was seen depends on the method and setting. In cells and extracts the contact can be indirect. A yes stands for co-enrichment or nearness to the bait. Other partners may have been found. For some assays here: A no says only that the protein was not detected with the bait.
Experiments:
[1] = biological target: GABAA receptor α1 subunit (mouse (endogenous in forebrain)) (UniProt P62812); assay: affinity purification with mass spectrometry; α1 and α2 (pHα2) receptors immunopurified from mouse forebrain plasma membrane fractions, BN-PAGE, 720 kDa species excised, label-free LC-MS/MS; only proteins significantly enriched over control (non-immune IgG, or anti-9E10 in wild type tissue)
[2] = biological target: GABAA receptor α2 subunit modified with pHluorin and 9E10 (myc) epitope on its N-terminus (mouse (knock-in, forebrain)) (UniProt P26048); assay: affinity purification with mass spectrometry; mouse forebrain plasma membranes solubilised in 0.5% Triton; α1 receptors with immobilised α1 monoclonal antibody from wild type tissue, α2 receptors with anti-9E10 (myc) beads from pHα2 tissue; soft elution, BN-PAGE, 250 kDa band excised, LC-MS/MS against control purifications
[3] = biological target: GABAA receptor α2 subunit modified with pHluorin and 9E10 (myc) epitope on its N-terminus (mouse (knock-in, forebrain)) (UniProt P26048); assay: affinity purification with mass spectrometry; α1 and α2 (pHα2) receptors immunopurified from mouse forebrain plasma membrane fractions, BN-PAGE, 720 kDa species excised, label-free LC-MS/MS; only proteins significantly enriched over control (non-immune IgG, or anti-9E10 in wild type tissue)

The chains behind the UniProt entries cited, without tags or fusion partners. Residues count along the entry.
UniProt P62812, residues 28-455: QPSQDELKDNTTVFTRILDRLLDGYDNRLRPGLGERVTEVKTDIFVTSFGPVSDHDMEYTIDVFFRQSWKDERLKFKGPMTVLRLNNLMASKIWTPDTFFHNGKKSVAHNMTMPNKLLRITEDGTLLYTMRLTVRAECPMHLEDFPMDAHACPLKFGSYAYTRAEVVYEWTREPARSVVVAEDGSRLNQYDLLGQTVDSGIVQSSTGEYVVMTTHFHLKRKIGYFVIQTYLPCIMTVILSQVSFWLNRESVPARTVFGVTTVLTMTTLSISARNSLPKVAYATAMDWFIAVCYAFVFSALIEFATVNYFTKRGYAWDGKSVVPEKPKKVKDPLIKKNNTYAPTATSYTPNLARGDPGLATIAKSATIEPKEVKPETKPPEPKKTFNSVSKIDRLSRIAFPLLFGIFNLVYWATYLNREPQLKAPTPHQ
UniProt P26048, residues 29-451: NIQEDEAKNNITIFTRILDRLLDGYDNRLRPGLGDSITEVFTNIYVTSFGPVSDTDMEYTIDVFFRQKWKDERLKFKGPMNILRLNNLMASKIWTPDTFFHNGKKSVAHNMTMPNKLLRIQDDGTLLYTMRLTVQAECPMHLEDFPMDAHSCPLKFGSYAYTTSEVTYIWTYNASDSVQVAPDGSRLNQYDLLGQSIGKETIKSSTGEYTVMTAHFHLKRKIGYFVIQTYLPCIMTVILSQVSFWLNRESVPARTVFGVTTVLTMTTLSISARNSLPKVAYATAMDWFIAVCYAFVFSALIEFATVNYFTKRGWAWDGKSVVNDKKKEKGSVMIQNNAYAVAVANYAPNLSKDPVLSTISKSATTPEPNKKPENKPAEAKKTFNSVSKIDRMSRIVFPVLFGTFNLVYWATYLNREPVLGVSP
UniProt Q7TSJ2: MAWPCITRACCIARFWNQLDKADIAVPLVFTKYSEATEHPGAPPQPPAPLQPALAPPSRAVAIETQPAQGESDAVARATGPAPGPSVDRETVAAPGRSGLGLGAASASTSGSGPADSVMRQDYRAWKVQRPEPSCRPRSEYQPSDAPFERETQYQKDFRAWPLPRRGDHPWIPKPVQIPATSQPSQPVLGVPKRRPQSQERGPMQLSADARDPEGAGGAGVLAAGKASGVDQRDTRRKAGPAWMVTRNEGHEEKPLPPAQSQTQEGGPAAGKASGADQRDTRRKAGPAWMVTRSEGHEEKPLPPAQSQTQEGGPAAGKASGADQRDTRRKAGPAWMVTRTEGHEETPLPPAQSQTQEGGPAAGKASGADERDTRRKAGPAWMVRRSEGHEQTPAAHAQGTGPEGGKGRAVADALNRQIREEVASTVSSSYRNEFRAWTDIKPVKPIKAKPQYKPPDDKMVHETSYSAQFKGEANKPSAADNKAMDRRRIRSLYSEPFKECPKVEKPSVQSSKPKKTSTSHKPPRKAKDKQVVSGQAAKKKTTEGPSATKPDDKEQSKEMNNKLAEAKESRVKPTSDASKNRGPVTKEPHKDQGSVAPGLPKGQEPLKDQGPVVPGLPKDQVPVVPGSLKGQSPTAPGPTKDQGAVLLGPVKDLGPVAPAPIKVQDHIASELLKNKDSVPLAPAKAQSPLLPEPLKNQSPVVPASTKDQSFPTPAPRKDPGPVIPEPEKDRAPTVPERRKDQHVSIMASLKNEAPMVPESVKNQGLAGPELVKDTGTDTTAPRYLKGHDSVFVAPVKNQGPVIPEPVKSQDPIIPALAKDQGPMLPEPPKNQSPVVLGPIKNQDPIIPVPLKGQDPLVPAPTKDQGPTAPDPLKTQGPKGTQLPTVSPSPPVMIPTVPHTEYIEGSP
UniProt Q61879: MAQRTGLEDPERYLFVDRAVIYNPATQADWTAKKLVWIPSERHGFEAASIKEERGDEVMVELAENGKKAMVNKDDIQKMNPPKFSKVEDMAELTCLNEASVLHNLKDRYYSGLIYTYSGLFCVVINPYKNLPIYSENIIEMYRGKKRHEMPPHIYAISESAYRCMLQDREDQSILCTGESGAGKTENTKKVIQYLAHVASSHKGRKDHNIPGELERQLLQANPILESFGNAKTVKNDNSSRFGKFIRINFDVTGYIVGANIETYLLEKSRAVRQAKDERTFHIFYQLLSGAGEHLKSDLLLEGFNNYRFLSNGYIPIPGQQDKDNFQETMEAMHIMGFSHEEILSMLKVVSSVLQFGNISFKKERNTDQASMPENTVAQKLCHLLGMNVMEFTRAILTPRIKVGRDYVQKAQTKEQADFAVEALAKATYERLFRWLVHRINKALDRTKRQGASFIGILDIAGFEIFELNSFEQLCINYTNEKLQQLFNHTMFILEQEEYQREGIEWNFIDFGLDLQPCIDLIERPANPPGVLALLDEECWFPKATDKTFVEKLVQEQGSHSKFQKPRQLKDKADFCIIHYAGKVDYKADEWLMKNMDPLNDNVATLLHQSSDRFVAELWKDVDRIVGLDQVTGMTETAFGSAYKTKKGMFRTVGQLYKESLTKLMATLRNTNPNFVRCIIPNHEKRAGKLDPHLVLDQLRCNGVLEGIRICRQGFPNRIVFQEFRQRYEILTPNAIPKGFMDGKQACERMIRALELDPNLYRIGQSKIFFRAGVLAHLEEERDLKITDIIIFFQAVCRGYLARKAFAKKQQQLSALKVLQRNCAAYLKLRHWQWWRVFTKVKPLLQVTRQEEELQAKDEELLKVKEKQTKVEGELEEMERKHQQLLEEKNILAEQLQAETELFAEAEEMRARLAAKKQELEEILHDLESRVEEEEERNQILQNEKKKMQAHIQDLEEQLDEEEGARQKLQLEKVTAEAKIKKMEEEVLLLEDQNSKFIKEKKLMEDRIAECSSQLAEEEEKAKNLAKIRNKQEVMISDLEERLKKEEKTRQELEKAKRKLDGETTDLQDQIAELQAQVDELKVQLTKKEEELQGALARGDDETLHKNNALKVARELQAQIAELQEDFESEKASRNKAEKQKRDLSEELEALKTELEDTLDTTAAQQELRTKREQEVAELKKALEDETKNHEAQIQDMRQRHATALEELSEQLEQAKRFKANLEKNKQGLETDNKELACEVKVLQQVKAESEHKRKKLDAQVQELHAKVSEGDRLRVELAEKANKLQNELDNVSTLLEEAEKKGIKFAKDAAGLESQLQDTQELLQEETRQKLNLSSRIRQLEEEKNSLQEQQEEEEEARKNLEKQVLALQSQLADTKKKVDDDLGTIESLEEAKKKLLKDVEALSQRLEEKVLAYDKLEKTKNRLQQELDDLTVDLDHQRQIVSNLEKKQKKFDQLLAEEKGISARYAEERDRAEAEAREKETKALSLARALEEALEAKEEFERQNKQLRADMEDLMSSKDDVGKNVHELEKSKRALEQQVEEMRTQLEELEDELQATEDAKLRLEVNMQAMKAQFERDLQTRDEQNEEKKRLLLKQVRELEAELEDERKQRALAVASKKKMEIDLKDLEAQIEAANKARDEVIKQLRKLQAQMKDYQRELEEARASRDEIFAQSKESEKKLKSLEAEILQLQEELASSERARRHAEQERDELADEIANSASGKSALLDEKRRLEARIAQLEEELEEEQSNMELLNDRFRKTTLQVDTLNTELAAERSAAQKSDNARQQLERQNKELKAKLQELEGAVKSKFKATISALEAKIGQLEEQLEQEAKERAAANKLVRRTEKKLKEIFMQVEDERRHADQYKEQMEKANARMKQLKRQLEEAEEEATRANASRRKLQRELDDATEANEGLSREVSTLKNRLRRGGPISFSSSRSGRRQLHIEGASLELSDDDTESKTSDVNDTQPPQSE
UniProt Q99104: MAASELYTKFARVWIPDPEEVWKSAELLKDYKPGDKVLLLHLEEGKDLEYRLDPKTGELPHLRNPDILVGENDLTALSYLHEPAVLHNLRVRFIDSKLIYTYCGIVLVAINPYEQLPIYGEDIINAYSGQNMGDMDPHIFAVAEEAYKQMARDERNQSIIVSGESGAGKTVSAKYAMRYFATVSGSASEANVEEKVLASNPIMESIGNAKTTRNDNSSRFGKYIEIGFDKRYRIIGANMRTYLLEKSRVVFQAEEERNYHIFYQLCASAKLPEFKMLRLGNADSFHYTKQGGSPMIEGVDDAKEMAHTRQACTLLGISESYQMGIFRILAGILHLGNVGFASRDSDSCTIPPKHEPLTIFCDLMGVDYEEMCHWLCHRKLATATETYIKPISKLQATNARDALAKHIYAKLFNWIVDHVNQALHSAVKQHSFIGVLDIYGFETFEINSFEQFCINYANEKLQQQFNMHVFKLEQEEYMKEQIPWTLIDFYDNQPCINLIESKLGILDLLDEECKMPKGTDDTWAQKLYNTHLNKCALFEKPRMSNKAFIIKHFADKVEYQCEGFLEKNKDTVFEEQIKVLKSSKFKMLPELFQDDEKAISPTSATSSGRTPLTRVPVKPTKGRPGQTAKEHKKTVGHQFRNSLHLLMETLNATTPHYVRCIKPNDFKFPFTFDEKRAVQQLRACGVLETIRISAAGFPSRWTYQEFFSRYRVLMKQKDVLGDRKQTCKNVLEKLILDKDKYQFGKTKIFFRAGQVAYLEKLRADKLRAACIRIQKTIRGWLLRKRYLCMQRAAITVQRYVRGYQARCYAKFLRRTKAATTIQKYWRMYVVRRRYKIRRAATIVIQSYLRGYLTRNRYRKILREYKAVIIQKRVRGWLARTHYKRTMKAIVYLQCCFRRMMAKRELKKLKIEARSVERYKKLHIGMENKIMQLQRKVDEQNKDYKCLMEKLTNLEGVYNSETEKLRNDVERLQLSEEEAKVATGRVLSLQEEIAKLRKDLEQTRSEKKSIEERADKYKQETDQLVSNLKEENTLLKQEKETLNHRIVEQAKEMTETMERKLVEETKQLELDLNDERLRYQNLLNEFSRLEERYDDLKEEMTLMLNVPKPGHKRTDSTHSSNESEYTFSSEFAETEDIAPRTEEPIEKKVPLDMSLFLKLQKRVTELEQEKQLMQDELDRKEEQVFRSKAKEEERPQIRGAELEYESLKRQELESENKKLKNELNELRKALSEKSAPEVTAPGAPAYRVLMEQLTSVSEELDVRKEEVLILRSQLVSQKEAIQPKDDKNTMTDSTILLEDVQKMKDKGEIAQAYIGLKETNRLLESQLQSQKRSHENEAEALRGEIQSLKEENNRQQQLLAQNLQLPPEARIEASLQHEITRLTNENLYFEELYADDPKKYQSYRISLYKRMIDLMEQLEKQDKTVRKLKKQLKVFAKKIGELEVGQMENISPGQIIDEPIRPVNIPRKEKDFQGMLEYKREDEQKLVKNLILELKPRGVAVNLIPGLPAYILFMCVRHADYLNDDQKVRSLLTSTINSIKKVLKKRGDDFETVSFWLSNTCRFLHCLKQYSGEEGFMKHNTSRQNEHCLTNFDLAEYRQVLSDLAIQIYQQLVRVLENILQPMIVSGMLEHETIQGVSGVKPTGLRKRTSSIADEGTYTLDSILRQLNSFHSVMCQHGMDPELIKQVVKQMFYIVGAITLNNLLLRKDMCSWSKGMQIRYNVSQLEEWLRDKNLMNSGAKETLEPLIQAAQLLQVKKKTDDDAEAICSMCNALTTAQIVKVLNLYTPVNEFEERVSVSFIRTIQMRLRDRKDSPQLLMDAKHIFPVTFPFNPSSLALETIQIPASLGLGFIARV
UniProt Q6R891: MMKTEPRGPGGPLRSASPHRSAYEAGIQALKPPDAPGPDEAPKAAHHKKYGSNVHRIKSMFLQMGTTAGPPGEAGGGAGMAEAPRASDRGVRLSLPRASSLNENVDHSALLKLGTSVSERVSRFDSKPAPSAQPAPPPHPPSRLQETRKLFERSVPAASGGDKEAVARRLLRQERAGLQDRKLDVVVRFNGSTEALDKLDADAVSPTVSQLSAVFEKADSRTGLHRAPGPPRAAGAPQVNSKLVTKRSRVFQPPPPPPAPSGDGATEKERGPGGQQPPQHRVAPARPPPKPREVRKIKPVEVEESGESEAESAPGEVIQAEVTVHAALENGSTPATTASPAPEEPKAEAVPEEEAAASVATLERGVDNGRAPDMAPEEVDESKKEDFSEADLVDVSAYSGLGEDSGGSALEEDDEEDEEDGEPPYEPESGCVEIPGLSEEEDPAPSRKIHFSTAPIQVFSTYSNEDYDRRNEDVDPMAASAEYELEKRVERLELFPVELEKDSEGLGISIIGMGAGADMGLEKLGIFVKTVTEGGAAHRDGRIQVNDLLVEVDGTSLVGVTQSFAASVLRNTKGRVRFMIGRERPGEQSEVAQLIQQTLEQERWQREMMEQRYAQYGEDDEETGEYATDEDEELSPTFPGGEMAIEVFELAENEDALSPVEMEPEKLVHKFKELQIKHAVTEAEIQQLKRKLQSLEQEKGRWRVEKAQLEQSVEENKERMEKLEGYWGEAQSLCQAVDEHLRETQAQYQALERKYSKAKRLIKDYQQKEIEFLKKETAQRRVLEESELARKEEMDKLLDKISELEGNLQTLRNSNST

Substance | binding [1] | binding [2] | binding [3]
Actn1 (from UniProt Q7TPR4 1-892) | binds |  | 
GABAA receptor α6 subunit (from UniProt P16305 20-453) |  | no binding | 
Map6 (from UniProt Q7TSJ2 1-906) | binds |  | 
Myh10 (from UniProt Q61879 1-1976) | binds |  | binds
Myo5a (from UniProt Q99104 1-1853) | binds |  | binds
Ppp1r9b (from UniProt Q6R891 1-817) | binds |  | 
Shank3 (from UniProt Q4ACU6 1-1730) | binds |  | 
Syngap1 (from UniProt F6SEU4 1-1340) | binds |  | 
α2 spectrin (from UniProt P16546 1-2472) | binds |  | binds
β2 spectrin (from UniProt Q62261 1-2363) | binds |  | binds
